# Measurements reported in PubChem BioAssay AID1259308 (NCATS, 2017).
# Purpose: 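Knock-downs that increase output of a recombinant reporter protein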 (primary screen)
# Cells: human HEK293 embryonic kidney cells stably expressing firefly luciferase (HEK-CMV-Luc2-Hygro)
# Reagents: single siRNA against human genes, 0.8 pmol siRNA per well
# Timing: 72 h
# Read-out: 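Luciferase light (ONE-Glo) measured on one replicate plate set and viability (CellTiter-Glo) on the other, scaled to a negative control siRNA, with robust z-scores and luciferase per cell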
# Direction: total luciferase, z-score and total luciferase, % of control: higher = more reporter protein produced; luciferase per cell, z-score: higher = more reporter output per viable cell; viable cells, % of control: higher = more viable cells
# Call rule: 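Active when the median/MAD z-score for overall luciferase is greater than 3; a gene was taken forward for validation with new siRNAs if at least two of its three siRNAs passed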
# Meaning of the calls: active = raised luciferase; inactive = no rise
# Here is an unselected part of about 59,000 deposited reagents. About 1,510 of all reagents (2.6%) count as active. 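Calls use total luciferase alone and ignore viability, so some active siRNAs may act by altering cell number.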 The numbers tell different reagents against one gene apart.
gene symbol,siRNA no.,"total luciferase, z-score","total luciferase, % of control","luciferase per cell, z-score","viable cells, % of control",Outcome
MYBL2 (GeneID 4605),1,-0.0892,80.1,0.479,78.9,inactive
MYBL2 (GeneID 4605),2,-1.18,58.4,-0.41,72.7,inactive
MYBL2 (GeneID 4605),3,-1.07,60.6,-0.75,82.6,inactive
HNRNPH3 (GeneID 3189),1,-1.02,61.6,-0.842,85.8,inactive
HNRNPH3 (GeneID 3189),2,1.82,118,1.55,87.7,inactive
HNRNPH3 (GeneID 3189),3,-0.0155,81.6,-0.0678,92.8,inactive
ZBTB44 (GeneID 29068),1,0.401,89.9,-0.0457,102,inactive
ZBTB44 (GeneID 29068),2,1.06,103,0.274,107,inactive
ZBTB44 (GeneID 29068),3,-0.615,69.6,-1.51,116,inactive
HMGN1 (GeneID 3150),1,-0.221,77.5,-0.435,97.1,inactive
HMGN1 (GeneID 3150),2,2.17,125,1.76,87.9,inactive
HMGN1 (GeneID 3150),3,-0.164,78.6,0.508,76.8,inactive
GOLM2 (GeneID 113201),1,1.63,114,1,98,inactive
GOLM2 (GeneID 113201),2,0.794,97.7,0.675,91.4,inactive
GOLM2 (GeneID 113201),3,-0.0827,80.2,-0.323,97.6,inactive
UTP6 (GeneID 55813),1,-1.37,54.7,-1.62,93.7,inactive
UTP6 (GeneID 55813),2,-0.256,76.8,0.0903,83.8,inactive
UTP6 (GeneID 55813),3,-1.35,55.1,-1.78,98.4,inactive
UBR7 (GeneID 55148),1,0.281,87.5,0.129,94.5,inactive
UBR7 (GeneID 55148),2,0.296,87.8,-0.154,102,inactive
UBR7 (GeneID 55148),3,0.176,85.4,0.314,87.9,inactive
MVK (GeneID 4598),1,-0.668,68.6,0.0582,75.5,inactive
MVK (GeneID 4598),2,0.292,87.7,0.797,79.4,inactive
MVK (GeneID 4598),3,-0.448,73,-0.865,102,inactive
EBF2 (GeneID 64641),1,0.895,99.7,0.117,108,inactive
EBF2 (GeneID 64641),2,-0.0647,80.6,-0.0263,90.7,inactive
EBF2 (GeneID 64641),3,-0.994,62.1,-1.04,91.2,inactive
LINC01915 (GeneID 729950),1,-0.0743,80.4,0.879,71.3,inactive
LINC01915 (GeneID 729950),2,0.693,95.7,-0.163,112,inactive
LINC01915 (GeneID 729950),3,-0.387,74.2,-0.396,92,inactive
KIF3B (GeneID 9371),1,-0.643,69.1,-0.534,88.9,inactive
KIF3B (GeneID 9371),2,-0.971,62.6,-0.187,73.4,inactive
KIF3B (GeneID 9371),3,1.37,109,0.616,104,inactive
ZNF440 (GeneID 126070),1,-0.584,70.3,-0.883,99.1,inactive
ZNF440 (GeneID 126070),2,-0.464,72.7,-0.586,94.7,inactive
ZNF440 (GeneID 126070),3,-1.57,50.7,-0.175,59.4,inactive
AKR1A1 (GeneID 10327),1,2.52,132,2.2,82.6,inactive
AKR1A1 (GeneID 10327),2,3.68,155,2.71,84.9,active
AKR1A1 (GeneID 10327),3,0.382,89.5,0.2,94.9,inactive
PTCH2 (GeneID 8643),1,1.81,118,1.56,87.3,inactive
PTCH2 (GeneID 8643),2,-1.27,56.6,-0.272,67.9,inactive
PTCH2 (GeneID 8643),3,1.2,106,1.14,87.4,inactive
PTPN2P1 (GeneID 646981),1,1.01,102,0.581,97.8,inactive
PTPN2P1 (GeneID 646981),2,-0.396,74,-0.396,91.8,inactive
PTPN2P1 (GeneID 646981),3,0.409,90,0.351,91.7,inactive
GALNTL5 (GeneID 168391),1,1.36,109,0.87,96.7,inactive
GALNTL5 (GeneID 168391),2,0.0818,83.5,-0.165,97.5,inactive
GALNTL5 (GeneID 168391),3,0.162,85.1,-0.341,104,inactive
CCNY (GeneID 219771),1,0.0562,83,0.405,83.4,inactive
CCNY (GeneID 219771),2,0.451,90.9,0.347,92.7,inactive
CCNY (GeneID 219771),3,3.36,149,2.51,85.9,active
LRRC28 (GeneID 123355),1,0.501,91.9,0.327,94.2,inactive
LRRC28 (GeneID 123355),2,-0.52,71.5,0.746,65.7,inactive
LRRC28 (GeneID 123355),3,-0.753,66.9,-1.28,105,inactive
OTOA (GeneID 146183),1,0.395,89.7,2.78,48.2,inactive
OTOA (GeneID 146183),2,1.41,110,1.13,91.3,inactive
OTOA (GeneID 146183),3,0.0764,83.4,-0.506,106,inactive

9 of these entries, reformatted.
| gene symbol | siRNA no. | total luciferase, z-score | total luciferase, % of control | luciferase per cell, z-score | viable cells, % of control | Outcome |
| --- | --- | --- | --- | --- | --- | --- |
| GOLM2 (GeneID 113201) | 2 | 0.794 | 97.7 | 0.675 | 91.4 | inactive |
| GOLM2 (GeneID 113201) | 3 | -0.0827 | 80.2 | -0.323 | 97.6 | inactive |
| UTP6 (GeneID 55813) | 1 | -1.37 | 54.7 | -1.62 | 93.7 | inactive |
| UTP6 (GeneID 55813) | 2 | -0.256 | 76.8 | 0.0903 | 83.8 | inactive |
| UTP6 (GeneID 55813) | 3 | -1.35 | 55.1 | -1.78 | 98.4 | inactive |
| UBR7 (GeneID 55148) | 1 | 0.281 | 87.5 | 0.129 | 94.5 | inactive |
| UBR7 (GeneID 55148) | 2 | 0.296 | 87.8 | -0.154 | 102 | inactive |
| UBR7 (GeneID 55148) | 3 | 0.176 | 85.4 | 0.314 | 87.9 | inactive |
| MVK (GeneID 4598) | 1 | -0.668 | 68.6 | 0.0582 | 75.5 | inactive |
